The values that follow come from patent US20090124537A1.

Sequences of proteins named here, by UniProt entry; tags and fusion partners are left off. Residues count along the entry.
UniProt P18075, residues 293-431: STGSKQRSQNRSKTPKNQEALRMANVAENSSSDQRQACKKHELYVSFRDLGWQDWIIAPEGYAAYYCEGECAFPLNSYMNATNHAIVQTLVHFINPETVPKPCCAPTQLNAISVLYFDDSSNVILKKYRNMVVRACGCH

The test has as its target T1, extracellular domain (ECD) of the type II receptor daf-4, hexa-histidine tagged (C. elegans).
T1 sequence (chain, heavily glycosylated): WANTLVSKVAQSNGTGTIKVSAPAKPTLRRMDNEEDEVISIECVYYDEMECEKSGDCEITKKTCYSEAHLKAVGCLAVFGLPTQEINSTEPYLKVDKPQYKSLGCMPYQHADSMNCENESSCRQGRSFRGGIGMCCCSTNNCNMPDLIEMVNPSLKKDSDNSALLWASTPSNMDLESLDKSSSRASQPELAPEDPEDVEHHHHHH
As to the kind of experiment: ligand blot with 125I-BMP-7 on purified daf-4 ECD; inhibited by excess unlabeled BMP-7.

These are yes or no findings as the source states them, for the method shown. Some entries that bind do so weakly or less than the wild type. Sequences can lack the tags named with a protein.

As to “bone morphogenetic protein-7 (from UniProt P18075 293-431) (ligand)”, the binding result was “binds”.
